For assay [1], the target named is Saccharomyces cerevisiae PCNA (ScPCNA), wild type (S. cerevisiae) (UniProt P15873). The experiment in a line: urea-PAGE; 12 % polyacrylamide gel containing 6 M urea, Coomassie stain; both purified.
In assay [2] the target is Saccharomyces cerevisiae PCNA G178S mutant (S. cerevisiae) (UniProt P15873). The assay can be described thus: cross-linking; about 20 μg protein in 20 mM HEPES pH 7.5 with glutaraldehyde, 5 min at 37 °C, then 12 % SDS-PAGE; both purified.
The target in assay [3] is Candida albicans proliferating cell nuclear antigen (CaPCNA), wild type (Candida albicans SC5314) (UniProt Q5AMN0). The assay can be described thus: urea-PAGE; 12 % polyacrylamide gel containing 6 M urea, Coomassie stain; both purified.

Sequences of proteins named here, by UniProt entry; tags and fusion partners are left off. A change or cut given only in a name is not applied to a line headed by its entry.
UniProt P15873: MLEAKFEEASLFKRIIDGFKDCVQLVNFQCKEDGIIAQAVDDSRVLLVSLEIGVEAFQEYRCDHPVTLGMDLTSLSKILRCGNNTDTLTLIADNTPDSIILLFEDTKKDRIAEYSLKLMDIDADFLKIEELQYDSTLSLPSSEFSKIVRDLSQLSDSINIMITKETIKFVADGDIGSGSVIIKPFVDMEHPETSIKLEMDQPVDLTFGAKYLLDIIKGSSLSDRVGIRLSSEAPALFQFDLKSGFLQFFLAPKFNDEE

No constants are given. Whether binding was seen depends on the method and setting. Some entries that bind do so weakly or less than the wild type.

For the molecule “Saccharomyces cerevisiae PCNA (ScPCNA), wild type (from UniProt P15873 1-258)”, the binding entry in assay [1] was “no binding (condition: 6 M urea)”.
Regarding “Saccharomyces cerevisiae PCNA G178S mutant (from UniProt P15873 1-258)”, in assay [2], the binding entry is reported as “binds weakly”.

B1: Candida albicans proliferating cell nuclear antigen (CaPCNA), wild type (natural protein, Candida albicans SC5314, UniProt Q5AMN0 1-259, looked up)
chain: MLEGKFEEAALLKKVVEAIKDCVKKCNFNCSEHGITVQAVDDSRVLLVSLLIGQTSFSEYRCDRDVTLGIDLESFSKIIKSANNEDFLTLLAEDSPDQIMAILEEKQKEKISEYSLKLMDIDSEFLQIDDMEYDAVVNMPSSDFAKLVRDLKNLSESLRVVVTKDSVKFTSEGDSGSGSVILKPYTNLKNERESVTISLDDPVDLTFGLKYLNDIVKAATLSDVITIKLADKTPALFEFKMQSGGYLRFYLAPKFDDDE
notes: PCNA (POL30) of Candida albicans SC5314, orf19.4616 of the Candida Genome Database, 259 amino acids; the orf was amplified from genomic DNA with primers from the start to the stop codon; A few residues of the Prescission site and the cloning site may remain at the N-terminus after cleavage; also called orf19.4616; CaO19.12086; source: E. coli BL21-DE3, purified (glutathione beads, eluted by …)
In the case of B1, the binding result in assay [3] was “no binding (condition: 6 M urea)”.

(Values after article PMC4634812, “Characterization of proliferating cell nuclear antigen (PCNA) from pathogenic yeast Candida albicans and its functional analyses in S. Cerevisiae” (BMC Microbiology, 2015).)
